Assay results published in PMC3200332.
These are yes or no findings as the source states them, for the method shown. Binding seen in cells or lysates may run through a third protein. A result given as binding can be weak or reduced; the word gives no strength. Where a sequence is shown, tags or fusion partners need not be part of it.

Target: T1, Pyrococcus furiosus soluble hydrogenase I small subunit (SSU, PF0893) with N-terminal His9 tag (Pyrococcus furiosus) (UniProt Q8U2E5)
T1 sequence: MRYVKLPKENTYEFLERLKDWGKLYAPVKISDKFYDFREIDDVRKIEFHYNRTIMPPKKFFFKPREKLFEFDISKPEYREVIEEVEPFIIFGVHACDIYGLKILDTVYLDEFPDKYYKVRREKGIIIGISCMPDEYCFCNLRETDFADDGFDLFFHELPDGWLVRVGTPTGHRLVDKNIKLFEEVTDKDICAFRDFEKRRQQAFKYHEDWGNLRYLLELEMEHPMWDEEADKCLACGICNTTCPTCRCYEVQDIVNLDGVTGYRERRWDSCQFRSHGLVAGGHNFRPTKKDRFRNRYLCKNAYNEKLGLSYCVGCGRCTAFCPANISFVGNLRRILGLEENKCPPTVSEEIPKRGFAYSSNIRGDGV
Experiment: SEC; purified OE-SHI Dimer preparation (co-purified complex from P. furiosus) on a calibrated Superdex S200 sizing column; apparent Mr; both purified

binding: binds
Substance: Pyrococcus furiosus soluble hydrogenase I large subunit (LSU, PF0894)
